# According to PubChem BioAssay AID504834 (National Center for Advancing Translational Sciences (NCATS), 2011):
# Several values for one entry are separate records, joined by “and”; a condition that tells them apart may be missing. Equal values may be shown once. In all, about 320,000 compounds went through this assay and about 22,000 (6.9%) were called active. Inconclusive means that the source gave no clear call. Such entries were picked first, then a sample of the others. Calls come from the whole dose curve; as a rule, active = well fitted inhibition curve with a large enough effect; inconclusive = small, poorly fitted or top-dose-only effect, or another doubt; inactive = no such curve, though single readings can be large or run the other way. A potency beside an inconclusive call is a rough fit, not a confirmed value.
# Test: Primary qHTS for delayed death inhibitors of the malarial parasite plastid, 96 hour incubation
# Conditions: P. falciparum luciferase reporter growth; series mostly up to 28.7 µM; activity change, negative = inhibition: at the top concentration
# How it was run: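 Two-generation exposure (96 h) targets delayed-death phenotype. Reporter parasites carrying integrated firefly luciferase, in red cells at 2% hematocrit and 0.05% parasitemia final, kept at 37 C, 5% CO2; luminescence loss indicates inhibition.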
# % is set by controls: 0 for no effect and ±100 for the full control effect; potency is the fitted concentration of half-maximal effect.
SMILES,"activity change, negative = inhibition",Potency
COc1ccccc1Nc1nc(C2(C)CCC(=O)O2)cs1 (centres undefined),inactive: 1.23%,–
CCCC(C(=O)NC(C)(C)C)N(Cc1ccccc1Cl)C(=O)c1snc(C(N)=O)c1N (centres undefined),–,"inconclusive: 9.28 µM [inhibitor, single point]"
S=c1[nH]nc(-c2ccc(Cl)cc2)n1-c1cccnc1,–,"inconclusive: 13.1 µM [inhibitor, partial curve, poor fit]"
N#Cc1ccccc1Cn1cc(C#N)c2ccccc21,inactive: -6.88%,–
CC1CCc2sc(C(=O)OCC(=O)NC(C)C)cc2C1 (centres undefined),inactive: 38.7%,–
Cc1ccccc1-n1cc(CNC(=O)C2CCC(=O)N(C3CC3)C2)cn1 (centres undefined),–,"inconclusive: 11.7 µM [inhibitor, single point]"
O=C(Nc1cnn(Cc2c(Cl)cccc2Cl)c1)C(c1ccccc1)c1ccccc1,–,"inconclusive: 9.28 µM [inhibitor, partial curve, poor fit]"
COc1ccc(C(=O)Nn2cnnc2)cc1OC,inactive: -2.49%,–
Cc1cc(CN2CCCC(N3CCc4ccccc4C3)C2)cc(C)c1O (centres undefined),–,active: 10.4 µM
CCOc1ccc(N(CCCCO)C(=S)NC(=O)c2ccc(C)c(Br)c2)cc1,inactive: -19%,–
COc1ccccc1CO/N=C/c1cccn1-c1nccc(N(C)C)c1C#N,–,"inconclusive: 20.8 µM [inhibitor, partial curve, poor fit]"
O=C(CC1CCCC1)Nc1ccc(Br)cc1,inactive: 103%,–
COc1ccc(/C(C)=N/NC(=O)c2ccc(CSc3cccc4cccnc34)cc2)cc1OC,–,"inconclusive: 8.28 µM [inhibitor, partial curve, poor fit]"
CCC(=O)N1CN(S(=O)(=O)c2ccc(C)cc2)CC1C (centres undefined),–,"inconclusive: 13.1 µM [inhibitor, single point]"
Cc1cc(=O)[nH]c(SCC(=O)/C=C2\N(C)c3ccccc3C2(C)C)n1,–,"inconclusive: 18.5 µM [inhibitor, single point]"
Cn1c(CC(=O)Nc2ccccc2)c(Sc2ccccc2)c2ccccc21,–,active: 8.28 µM
Cc1cc(C)c(S(=O)(=O)NCCOc2ccccc2)c(C)c1-n1cnnn1,–,"inconclusive: 0.928 µM [inhibitor, full curve, poor fit]"
O=C(Nc1ccc(Cl)cc1)Nc1nnc(/C=C/c2ccccc2)s1,–,active: 13.1 µM
O=C(O)CCCCCNC(=O)CCn1nnc2ccccc2c1=O,–,"inconclusive: 2.94 µM [inhibitor, partial curve]"
COc1ccc(/C=N\NC(=O)c2ccccc2F)cc1COc1ccc(F)cc1F,–,"inconclusive: 10.4 µM [inhibitor, single point]"
Cc1nc([N+](=O)[O-])c(C(=O)OCc2ccc(C#N)cc2)n1C,–,"inconclusive: 1.65 µM [inhibitor, full curve]"
Cc1ccc(Cn2ccsc2=NC(=O)COC(=O)c2ccc(O)cc2O)cc1,–,"inconclusive: 0.0415 µM [inhibitor, full curve, poor fit]"
Cc1ccc(-n2c(SCC(=O)NCC3CCCO3)nc3ccccc3c2=O)cc1C (centres undefined),–,"inconclusive: 18.5 µM [inhibitor, single point]"

# Not a retest: entries from further up.
SMILES,"activity change, negative = inhibition",Potency
COc1ccccc1Nc1nc(C2(C)CCC(=O)O2)cs1 (centres undefined),inactive: 1.23%,–
CCCC(C(=O)NC(C)(C)C)N(Cc1ccccc1Cl)C(=O)c1snc(C(N)=O)c1N (centres undefined),–,"inconclusive: 9.28 µM [inhibitor, single point]"
S=c1[nH]nc(-c2ccc(Cl)cc2)n1-c1cccnc1,–,"inconclusive: 13.1 µM [inhibitor, partial curve, poor fit]"
N#Cc1ccccc1Cn1cc(C#N)c2ccccc21,inactive: -6.88%,–
CC1CCc2sc(C(=O)OCC(=O)NC(C)C)cc2C1 (centres undefined),inactive: 38.7%,–
Cc1ccccc1-n1cc(CNC(=O)C2CCC(=O)N(C3CC3)C2)cn1 (centres undefined),–,"inconclusive: 11.7 µM [inhibitor, single point]"
O=C(Nc1cnn(Cc2c(Cl)cccc2Cl)c1)C(c1ccccc1)c1ccccc1,–,"inconclusive: 9.28 µM [inhibitor, partial curve, poor fit]"
COc1ccc(C(=O)Nn2cnnc2)cc1OC,inactive: -2.49%,–
Cc1cc(CN2CCCC(N3CCc4ccccc4C3)C2)cc(C)c1O (centres undefined),–,active: 10.4 µM
CCOc1ccc(N(CCCCO)C(=S)NC(=O)c2ccc(C)c(Br)c2)cc1,inactive: -19%,–
COc1ccccc1CO/N=C/c1cccn1-c1nccc(N(C)C)c1C#N,–,"inconclusive: 20.8 µM [inhibitor, partial curve, poor fit]"
O=C(CC1CCCC1)Nc1ccc(Br)cc1,inactive: 103%,–
COc1ccc(/C(C)=N/NC(=O)c2ccc(CSc3cccc4cccnc34)cc2)cc1OC,–,"inconclusive: 8.28 µM [inhibitor, partial curve, poor fit]"
CCC(=O)N1CN(S(=O)(=O)c2ccc(C)cc2)CC1C (centres undefined),–,"inconclusive: 13.1 µM [inhibitor, single point]"
Cc1cc(=O)[nH]c(SCC(=O)/C=C2\N(C)c3ccccc3C2(C)C)n1,–,"inconclusive: 18.5 µM [inhibitor, single point]"
Cn1c(CC(=O)Nc2ccccc2)c(Sc2ccccc2)c2ccccc21,–,active: 8.28 µM
Cc1cc(C)c(S(=O)(=O)NCCOc2ccccc2)c(C)c1-n1cnnn1,–,"inconclusive: 0.928 µM [inhibitor, full curve, poor fit]"
O=C(Nc1ccc(Cl)cc1)Nc1nnc(/C=C/c2ccccc2)s1,–,active: 13.1 µM
O=C(O)CCCCCNC(=O)CCn1nnc2ccccc2c1=O,–,"inconclusive: 2.94 µM [inhibitor, partial curve]"
COc1ccc(/C=N\NC(=O)c2ccccc2F)cc1COc1ccc(F)cc1F,–,"inconclusive: 10.4 µM [inhibitor, single point]"

# (list continues)

SMILES,"activity change, negative = inhibition",Potency
COCCN1C(=S)N[C@@H](c2cccc(F)c2)C(C(=O)OC)=C1C,–,"inconclusive: 10.4 µM [inhibitor, single point] and inconclusive: 2.94 µM [inhibitor, full curve, poor fit]"
CCN(CC)S(=O)(=O)c1cccc(C(=O)N[C@@H](C)c2nc3ccccc3[nH]2)c1,–,"inconclusive: 4.15 µM [inhibitor, single point]"
CN(CC(=O)Nc1c(Cl)cccc1Cl)C(=O)c1sccc1-c1ccccc1,–,"inconclusive: 11.7 µM [inhibitor, single point]"
CCOc1cc(C)nc(NCCc2ccc(OC)c(OC)c2)n1,–,"inconclusive: 18.5 µM [inhibitor, single point]"
O=C(O)c1ccccc1-c1csc(-c2ccccc2)n1,inactive: 49.1%,–
CCCc1cc(=O)[nH]c(NCCc2ccccc2)n1,–,active: 13.1 µM
O=C(CCNC(=O)N1CC(=O)Nc2ccccc21)NCc1cccc(Cl)c1,–,"inconclusive: 18.5 µM [inhibitor, single point]"
O=C(O)c1ccc(-c2cccc([N+](=O)[O-])c2)o1,inactive: 6.51%,–
O=C(CNC(=O)C1CCCCC1)OC(C(=O)c1ccccc1)c1ccccc1 (centres undefined),–,"inconclusive: 2.08 µM [inhibitor, partial curve, poor fit]"
O=C(O)C(NS(=O)(=O)c1cccc2nsnc12)c1ccccc1 (centres undefined),inactive: 19.4%,–
CCOc1ccc(-c2nc(CSCC(=O)N3CCN(c4cccc(OC)c4)CC3)c(C)o2)cc1,–,"inconclusive: 18.5 µM [inhibitor, single point]"
COc1ccc(CC(=O)n2[nH]c(=O)cc(C)c2=O)cc1OC,inactive: 0%,–
COc1ccc(Br)cc1CN(C)CC(=O)Nc1cc(Cl)ccc1Cl,–,"inconclusive: 18.5 µM [inhibitor, single point]"
CS(=O)(=O)Nc1ccc(C2=NN(C(=O)c3ccco3)C(c3ccccc3F)C2)cc1 (centres undefined),–,"inconclusive: 11.7 µM [inhibitor, single point]"
CCC(C)(CN(C)C)OC(=O)c1ccccc1 (centres undefined),inactive: 3.47%,–
COc1cccc(-c2nc(CS(=O)(=O)CC(=O)NC3CCC(C)CC3)c(C)o2)c1 (centres undefined),–,"inconclusive: 9.28 µM [inhibitor, partial curve]"
CCCn1c(C(C)Nc2nc(-c3ccc(C)cc3)cs2)nc2cc(Cl)c(Cl)cc21 (centres undefined),–,"inconclusive: 18.5 µM [inhibitor, single point]"
CN(C)CCN1C(=O)NC(C)(c2ccc([N+](=O)[O-])cc2)C1=O (centres undefined),–,"inconclusive: 14.7 µM [inhibitor, single point]"
CCCCCCn1c(=O)c(F)cn(Cc2ccc(OC)c([N+](=O)[O-])c2)c1=O,–,"inconclusive: 14.7 µM [inhibitor, partial curve]"
Cc1nc2c(-c3ccccc3)c(C)nn2c(C)c1CCC(=O)N1CCOCC1,–,"inconclusive: 0.165 µM [inhibitor, partial curve, poor fit]"
Cc1c(C(=O)N2CCC3(CC2)OCCO3)sc2ncnc(N3CCc4ccccc4C3)c12,–,"inconclusive: 18.5 µM [inhibitor, single point]"
C[n+]1ccc(/C=C/c2ccccc2O)c2ccccc21,–,"inconclusive: 18.5 µM [inhibitor, single point]"
Cc1cc(C)c(NC(=O)CNC(=O)COC(=O)CN2C(=O)NC3(CCCC3)C2=O)c(C)c1,inactive: 61.8%,–

SMILES,"activity change, negative = inhibition",Potency
Nc1nc(-c2ccc(F)cc2)cs1,–,"inconclusive: 16.5 µM [inhibitor, single point]"
COCCNC(=O)/C(C#N)=C/c1c(N2CCCCCC2)nc2c(C)cccn2c1=O,–,"inconclusive: 11.7 µM [inhibitor, single point]"
S=C(NCCc1ccc(Cl)cc1)NC1CCCCC1,–,"inconclusive: 7.38 µM [inhibitor, partial curve]"
Cc1ccc(S(=O)(=O)NCc2ccc(C(=O)NC3CCCCC3)cc2)cc1,–,"inconclusive: 18.5 µM [inhibitor, single point]"
CN(C(=O)c1c(Br)cnn1C)C12CC3CC(CC(C3)C1)C2,inactive: 0.99%,–
CCCCn1c(N)c(C(=O)NCCN2CCOCC2)c2nc3ccccc3nc21,inactive: 8.38%,–
Cc1c(C(=O)NCCc2ccc(Cl)cc2)sc2nc3n(c(=O)c12)CCC3,inactive: 31.2%,–
COCCCn1c(=S)[nH]c2ncccc2c1=O,–,"inconclusive: 0.0026 µM [inhibitor, full curve, poor fit]"
Cc1c(C(=O)NCc2ccccc2F)oc2ccccc12,–,"inconclusive: 11.7 µM [inhibitor, single point]"
CCOc1ccc(Nc2nc(Cc3nnc(SCC(=O)NC4CCCCC4)n3C)cs2)cc1,–,"inconclusive: 14.7 µM [inhibitor, partial curve, poor fit]"
CC(=O)Nc1oc(-c2cccc3ccccc23)nc1C#N,inactive: 9.89%,–
Cc1cc(NS(=O)(=O)c2ccc(NC(=S)NC(=O)/C=C/c3ccccc3)cc2)no1,–,"inconclusive: 4.15 µM [inhibitor, full curve, poor fit]"
COc1cc(OC)c(-c2nnc(-c3ccc(OC)c(OC)c3OC)o2)cc1OC,inactive: -26.2%,–
CCOC(=O)c1cc(C#N)c(N2CCN(c3ccccn3)CC2)nc1-c1ccccc1,inactive: 12.1%,–
COc1ccc(NC(=O)C2CCCN(c3ncnc4onc(-c5ccc(F)cc5)c34)C2)cc1 (centres undefined),inactive: -15.3%,–
N#C/C(=C(/O)CN1CCOCC1)c1nc(-c2ccccc2)cs1,–,"inconclusive: 0.0029 µM [inhibitor, full curve, poor fit]"
O=C(O)c1ccc(NC(=O)c2ccccc2Br)c(NC(=O)c2ccccc2Br)c1,–,"inconclusive: 5.22 µM [inhibitor, partial curve]"
Cc1nc(N2CCN(c3ccccn3)CC2)c2c(C)c(C(=O)Nc3ccc(F)cc3Cl)sc2n1,inactive: 14.1%,–
CCC1Oc2ccc(C)cc2N(CC(=O)N2CCCC2)C1=O (centres undefined),–,"inconclusive: 16.5 µM [inhibitor, single point]"
COC(=O)C1=C(c2c(C)noc2C)C[C@@H]2CC[C@H]1N2C(=O)N1CCOCC1,inactive: 6.07%,–
COc1ccc(NC(=O)CN(C)C(=O)c2c(C)nn(-c3ccccc3)c2Cl)cc1,–,"inconclusive: 9.28 µM [inhibitor, single point]"
O=C(c1cc(-c2ccccc2)n[nH]1)N1CCc2c([nH]c3ccccc23)C1c1ccccn1 (centres undefined),–,active: 8.28 µM
O=C(O)CCN1C(=O)c2ccc(Oc3ccc([N+](=O)[O-])cc3)cc2C1=O,–,"inconclusive: 2.62 µM [inhibitor, single point]"
